Measured values reported in US20150329825A1, “COMPOSITIONS AND METHODS EMPLOYING STEM CELL-DERIVED CARDIOMYOCYTES” (THE REGENTS OF THE UNIVERSITY OF MICHIGAN, priority 2014, published 2015).

System: hiPSC-CM monolayers
Assay: 96 well optical mapping of intracellular calcium flux in hiPSC-CM monolayers under IKr blockade
Format: cell-based, human
Details: 100 nmol L^-1 E4031
Description: Briefly, monolayers were loaded with the intracellular Ca^2+ indicator, rhod-2AM (10 μmol L-1, Life Technologies). After a 30 minute incubation time, the cells were washed in Hanks balanced salt solution (HBSS, Life Technologies) for an additional 30 minutes before optical mapping recordings. […] Movies were filtered in both the time and space domain and conduction velocity (CV) was measured as described previously (Hou L, et al., Circulation Research. 2010;107:1503-1511, herein incorporated by reference in its entirety).
To further investigate whether PDMS+matrigel promotes the expression of other potassium currents, the effects of E4031 (100 nmol L^−1), a selective blocker of the rapid component of the delayed rectifier potassium current (IKr) on the spontaneous beating rate and calcium transient duration (CaTD80) of hiPSC-CM monolayers cultured on matrigel coated PDMS was compared to those cultured on standard rigid, plastic bottom 96 well dishes (also matrigel coated, FIG. 11 illustrates how this multi-well optical mapping platform was used). Small glass coverslips to fit into a 96 well format dish are not readily available so here plastic was used as the rigid comparator for PDMS. […] This effect on beating frequency is due to the effect of E4031 to prolong the action potential and calcium transient durations.

SMILES: Cc1cccc(CCN2CCC(C(=O)c3ccc(NS(C)(=O)=O)cc3)CC2)n1 [E4031]
- fold increase of calcium transient duration (CaTD80) (PDMS bottom dishes, n=5): ~1.34 ×
- spontaneous beating frequency post E4031 (monolayers on matrigel coated PDMS, n=5, pre 1.02±0.04 Hz): 0.78±0.07 Hz
- spontaneous beating frequency post E4031 (monolayers on rigid plastic (matrigel coated), n=8, pre 0.83±0.02 Hz): 0.45±0.05 Hz
- fold increase of calcium transient duration (CaTD80) (plastic bottom dishes, n=8): ~3 ×
